# According to publication PMC3049581, “Development and evaluation of human AP endonuclease inhibitors in melanoma and glioma cell lines” (British Journal of Cancer, 2011):
# Test: Fluorescence quenching assay
# Conditions: 100 μM; >50% decrease in fluorescence = quencher
row,SMILES,Quencher (intrinsic fluorescence quenching)
1,"O=C(O)c1cc2cc(F)ccc2[nH]1 [Compound 1, 5-fluoro-1H-indole-2-carboxylic acid]",no
2,"O=C(COc1ccc2ccccc2c1)Nc1ccc(O)c(-c2nc3ccccc3o2)c1 [Compound 2, N-(3-benzooxazol-2-yl-4-hydroxy-phenyl)-2-(2-naphthyloxy)acetamide]",no
3,"O=C(OCC(=O)N1NC(c2ccc3ccccc3c2)=CC1c1ccccc1)c1ccc([N+](=O)[O-])s1 (centres unmarked) [Compound 3, (3-(2-naphthyl)-5-phenyl-2,5-dihydropyrazol-1-yl) carbonylmethyl 5-nitrothiophene-2-carboxylate]",no
4,"Cc1ccc(-c2nc(S(=O)(=O)c3ccccc3)c(SCC(=O)Nc3ccc(F)cc3)o2)cc1 [Compound 4, N-(4-fluorophenyl)-2-(4-phenylsulfonyl-2-(p-tolyl)oxazol-5-yl) sulfanyl-acetamide]",no
5,"O=C(CCCn1c(SCC(=O)Nc2nccs2)nc2ccsc2c1=O)NCc1ccc2c(c1)OCO2 [Compound 5, N-(benzo(1,3)dioxol-5-ylmethyl)-4-(2-oxo-4-(thiazol-2-ylcarbamoylmethylsulfanyl)-9-thia-3,5-diazabicyclo(4.3.0)nona-4,7,10-trien-3-yl)-butanamide]",no
6,"O=C(CSc1nc2ccccc2s1)CSc1nc2ccccc2s1 [Compound 6, 1,3-bis(1,3-benzothiazol-2-ylthio)acetone]",no
7,"N#CC(C(=O)c1cc2ccccc2o1)c1nc2ccccc2s1 (centres unmarked) [Compound 7, 3-benzofuran-2-yl-2-benzothiazol-2-yl-3-oxo-propanenitrile]",no

# Same assay, conditions: 100 μM; >50% decrease in fluorescence = quencher; listed as compound 4
row,SMILES,Quencher (intrinsic fluorescence quenching)
1,"Cc1ccc(-c2nc(S(=O)(=O)c3ccccc3)c(SCC(=O)Nc3ccc(F)cc3)o2)cc1 [Compound 4, N-(4-fluorophenyl)-2-(4-phenylsulfonyl-2-(p-tolyl)oxazol-5-yl) sulfanyl-acetamide]",did not reveal any quenching effect
